## Assay results

From PubChem BioAssay record AID1347106 (NCATS, 2019).

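Wild-type Hh fibroblast control cells treated with compounds for 48 h, with viability read as CellTiter-Glo luminescence and fitted into a concentration-response curve. Each compound was tested as a dilution series reaching a top concentration of about 46 µM. The number is the fitted half-maximal potency for cytotoxicity; a lower value means a more potent cell-killing compound. Calls come from curve class and a score: actives score 40 to 100 and inconclusives 1 to 39, so weak, poorly fitted or single-point curves are inconclusive.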

Values are in µM. All entries here are filed as inconclusive. Only part of the assay is shown, chiefly results filed as inconclusive. A potency from a partial, single-point or poor curve is only a rough figure. Some entries filed as inconclusive have a full curve. Activity scores are not listed here.

structure | Potency (µM) | curve as filed
CC1(N2CCC(n3c([C@@H]4CCCNC4)nc4ccccc43)CC2)CCCCCCC1 | 33.17 | cytotoxic, single point
CN1CCC(=C2c3ccccc3CC(=O)c3sccc32)CC1 | 33.17 | cytotoxic, single point
CC(C)C(=O)Nc1ncc(-c2cc(C(F)F)nn2-c2c(Cl)cccc2Cl)s1 | 16.63 | cytotoxic, partial curve, poor fit
CC[C@H](NC(=O)[C@H](C)NC)C(=O)N1C[C@@H](O)C[C@H]1Cc1c(-c2[nH]c3cc(F)ccc3c2C[C@H]2C[C@H](O)CN2C(=O)[C@H](CC)NC(=O)[C@H](C)NC)[nH]c2cc(F)ccc12 | 2.957 | cytotoxic, full curve
O=[N+]([O-])c1ccc(O)c2ncccc12 | 29.86 | cytotoxic, single point
Cc1cc(C(=O)N2CCN(c3cccc(Cl)c3)CC2)n(-c2ccccc2)n1 | 9.35 | cytotoxic, partial curve, poor fit
COC(=O)Nc1nc2ccc(S(=O)c3ccccc3)cc2[nH]1 (configuration not stated) | 9.441 | cytotoxic, partial curve, poor fit
Cc1c[nH]c(C=C2C(=O)Nc3ccccc32)c1CCC(=O)O | 4.686 | cytotoxic, full curve, poor fit
Nc1ncnc2ccccc12 | 16.63 | cytotoxic, partial curve
N=C1N=C(N)c2cc3ccccc3cc21 | 38.57 | cytotoxic, partial curve, poor fit
CCOc1cc2ncc(C#N)c(Nc3ccc(OCc4ccccn4)c(Cl)c3)c2cc1NC(=O)C=CCN(C)C | 0.7427 | cytotoxic, full curve
O=C(NCc1ccccc1)c1csc(Nc2ccncn2)n1 | 37.22 | cytotoxic, single point
C[C@@H]1C[C@H]2[C@@H]3CCC4=CC(=O)C=C[C@]4(C)[C@@]3(Cl)[C@@H](O)C[C@]2(C)[C@@]1(OC(=O)c1ccco1)C(=O)CCl | 0.0038 | cytotoxic, full curve, poor fit
CCN(CC)CCCCNc1ncc2c(n1)N(C)C(=O)N(c1c(Cl)c(OC)cc(OC)c1Cl)C2 | 5.899 | cytotoxic, partial curve
CCN(CC)CCOc1ccc(C(=C(Cl)c2ccccc2)c2ccccc2)cc1 | 4.686 | cytotoxic, full curve, poor fit
COc1ccc(-c2cc(=O)c3c(O)cc(O[C@@H]4O[C@H](CO[C@@H]5O[C@@H](C)[C@H](O)[C@@H](O)[C@H]5O)[C@@H](O)[C@H](O)[C@H]4O)cc3o2)cc1O | 3.759 | cytotoxic, partial curve, poor fit
CC1(C)CCC(C)(C)c2cc(NC(=O)c3ccc(C(=O)O)cc3)ccc21 | 33.17 | cytotoxic, single point
CO[C@H]1C=CC=C(C)C(=O)NC2=CC(=O)C(NCCN(C)C)=C(C[C@@H](C)C[C@H](OC)[C@@H](O)[C@@H](C)C=C(C)[C@@H]1OC(N)=O)C2=O | 37.22 | cytotoxic, single point
CCCC(=O)O[C@]1(C(=O)COC(=O)CC)CC[C@H]2[C@@H]3CCC4=CC(=O)CC[C@]4(C)[C@H]3[C@@H](O)C[C@@]21C | 1.836 | cytotoxic, partial curve, poor fit
C[C@](O)(CS(=O)(=O)c1ccc(F)cc1)C(=O)Nc1ccc(C#N)c(C(F)(F)F)c1 | 2.093 | cytotoxic, full curve
NC(CO)(CO)CCc1ccc(Sc2cccc(OCc3ccccc3)c2)cc1Cl | 37.22 | cytotoxic, single point
O=C1c2c(O)ccc(O)c2C(=O)c2c(NCCNCCO)ccc(NCCNCCO)c21 | 14.82 | cytotoxic, partial curve
C[C@@H]1O[C@@H](O[C@@H]2C=C3CC[C@@H]4[C@@H](CC[C@]5(C)[C@H](c6ccc(=O)oc6)CC[C@@]45O)[C@@]3(C)CC2)[C@H](O)[C@H](O)[C@H]1O | 0.0105 | cytotoxic, full curve
Cc1cc(C2CCCCC2)n(O)c(=O)c1 | 33.5 | cytotoxic, single point
CCC(C=C[C@@H]1OC(=O)C=C[C@H]1C)=C[C@H](C)CC=CC(C)=C[C@@H](C)C(=O)[C@@H](C)[C@H](O)[C@@H](C)CC(C)=CC(=O)O | 0.2773 | cytotoxic, full curve, poor fit
CCCCCCCCCCCCCCCC[N+](C)(C)C | 29.86 | cytotoxic, single point
CC#C[C@]1(O)CC[C@H]2[C@@H]3CCC4=CC(=O)CCC4=C3[C@@H](c3ccc(N(C)C)cc3)C[C@@]21C | 0.2957 | cytotoxic, full curve
CC[C@@]1(O)C(=O)OCc2c1cc1n(c2=O)Cc2cc3cc(O)ccc3nc2-1 | 13.21 | cytotoxic, partial curve
CC[C@]12C=CCN3CC[C@@]4(c5cc([C@@]6(C(=O)OC)C[C@H]7C[C@@H](C(C)(F)F)CN(Cc8c6[nH]c6ccccc86)C7)c(OC)cc5N(C)[C@H]4[C@@](O)(C(=O)OC)[C@H]1OC(C)=O)[C@@H]32 | 0.0743 | cytotoxic, full curve
Cc1ccc2nc(NC(=O)CSc3nc4c(c(=O)n3-c3ccccc3)SCC4)sc2c1 | 18.65 | cytotoxic, partial curve
Cc1cn([C@H]2C=C[C@@H](CO)O2)c(=O)[nH]c1=O | 19.14 | cytotoxic, partial curve
CCOc1cc2ncc(C#N)c(Nc3ccc(F)c(Cl)c3)c2cc1NC(=O)C=CCN(C)C | 1.177 | cytotoxic, full curve, poor fit
COc1cccc2c1C(=O)c1c(O)c3c(c(O)c1C2=O)C[C@@](O)(C(=O)CO)CC3OC1CC(N2CCOC(OC)C2)C(O)C(C)O1 (some centres not stated) | 0.6684 | cytotoxic, partial curve, poor fit
CN(C)Cc1cccc(N=C(c2ccccc2)c2c(O)[nH]c3cc(C(=O)N(C)C)ccc23)c1 | 18.65 | cytotoxic, partial curve
CC(=O)SCC(Cc1ccccc1)C(=O)NCC(=O)OCc1ccccc1 (configuration not stated) | 0.4176 | cytotoxic, full curve
CN1C(C)(C)CCCC1(C)C | 3.759 | cytotoxic, partial curve, poor fit
CCC1=C[C@@H]2CN(C1)Cc1c([nH]c3ccccc13)[C@@](C(=O)OC)(c1cc3c(cc1OC)N(C)[C@H]1[C@@](O)(C(=O)OC)[C@H](OC(C)=O)[C@]4(CC)C=CCN5CC[C@]31[C@@H]54)C2 | 0.2661 | cytotoxic, partial curve, poor fit

4 of the entries, repeated:

structure	Potency (µM)	curve as filed
Nc1ncnc2ccccc12	16.63	cytotoxic, partial curve
COC(=O)Nc1nc2ccc(S(=O)c3ccccc3)cc2[nH]1 (configuration not stated)	9.441	cytotoxic, partial curve, poor fit
NC(CO)(CO)CCc1ccc(Sc2cccc(OCc3ccccc3)c2)cc1Cl	37.22	cytotoxic, single point
CCOc1cc2ncc(C#N)c(Nc3ccc(OCc4ccccn4)c(Cl)c3)c2cc1NC(=O)C=CCN(C)C	0.7427	cytotoxic, full curve